Among the data in PubChem BioAssay AID493014 (National Center for Advancing Translational Sciences (NCATS), 2011) are AC50 values, retold here.

This experiment in a line: qHTS Assay to Find Inhibitors of Chronic Active B-Cell Receptor Signaling. As to conditions: ABC-DLBCL IkBa-CBG/CBR reporter, luminescence ratio (green luciferase fused to IkBa over red control in TMD8 lymphoma cells), 4 h. In outline: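 Doxycycline induced both beetle luciferases in TMD8 lymphoma cells; IKK-driven degradation limits the IkappaBalpha-fused green signal, while red luminescence normalises for cell number and nonspecific effects. Compounds tested up to 46 uM, 4 hrs.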

[1] abbreviates: measured here: CBR red luminescence, cell number.
The mark [2] stands for this setting: measured here: IkBa-CBG green luminescence.

The other results are listed elsewhere or left out. These are further read-outs of the screen, such as a control signal, another cell line or another target. No call is given for them. Most of these compounds were active or inconclusive in the main read-out, so they are no random draw. The note in brackets gives the kind of curve behind each potency; many fits are weak.

Take `CC1CCCC(NC(=O)c2n[nH]c(=O)c3ccccc23)C1C` (stereo not given): the concentration at half-maximal activity (AC50) under setting [1] was 3.98 µM [falling, partial curve, poor fit]. The same measure, in the same setting: to `COc1ccc(OC)c(NC(=O)CCC(=O)Nc2nnc(C(F)(F)F)s2)c1` belongs 2 µM [rising, full curve, poor fit]. Regarding `Cn1cnnc1SCC(=O)NCCc1ccccc1`, under setting [1], the half-maximal activity concentration (AC50) was 2.91 µM [falling, single point]. Turning to `CCOC(=O)Cc1csc(NC(=O)COc2cccc(C)c2)n1`, the AC50 under setting [1] was 7.94 µM [falling, partial curve]. The same measure, in the same setting: the same measure for `Cc1ccc(NC(=O)c2ccc(CSc3ccccn3)cc2)cc1`: 8.91 µM [falling, partial curve]. For the compound `CCN(CC)c1ccc(/C=N/NC(=O)c2ccco2)cc1`, the concentration at half-maximal activity (AC50) is 29.1 µM [falling, single point] under setting [1] and 18.4 µM [falling, single point] under setting [2]. As for `CC(C)N1CCN(CC#Cc2ccccc2)CC1CCO` (stereo not given), under setting [1], the AC50 was 20 µM [rising, single point]. Still for that read-out and setting: to `COc1ccc(-c2c3c(nc4sc5c(=O)[nH]c(C)nc5c24)CCC3)cc1` belongs 17.8 µM [rising, partial curve, poor fit]. The same measure, in the same setting: the same measure for `Cc1ccc2cc(CN(c3ccccc3)S(=O)(=O)c3ccccc3)c(=O)[nH]c2c1`: 2.24 µM [falling, full curve, poor fit]. As to `O=C(N/N=C/c1cc(Br)c(O)c(Br)c1O)c1ccc2c(c1)OCCO2`, the AC50 under setting [1] was 2.24 µM [falling, full curve]. In the case of `COc1ccc(/C=N/Nc2cc(C)nc(N3CCOCC3)n2)c(OC)c1`, the concentration at half-maximal activity (AC50) under setting [1] was 35.5 µM [rising, partial curve, poor fit].

As for `CN1C(=O)/C(=C\C(=O)c2cccs2)c2ccccc21`, the concentration at half-maximal activity (AC50) under setting [1] was 11.2 µM [falling, partial curve]. On the same count and under the same terms, to `COc1ccc(C2c3cc(OC)c(OC)cc3CCN2C2CC(=O)N(c3ccccc3)C2=O)cc1OC` (stereo not given) belongs 0.116 µM [rising, full curve, poor fit]; to `COc1ccc(S(=O)(=O)N2CCOCC2)cc1NC(=O)CSc1ncccn1`, 29.1 µM [rising, partial curve, poor fit]. On the same count and under the same terms, to `C/C(N)=C(/C#N)C(=O)COC(=O)c1cc2c(s1)CCCC2` belongs 12.6 µM [rising, single point]. Same read-out and setting: the same measure for `CCOC(=O)c1c(CSC(=N)N)n(C)c2cc(Br)c(OC(C)=O)cc12`: 22.4 µM [falling, single point]; for `COC(=O)c1cc(S(=O)(=O)NC2CCC(C)CC2)cn1C` (stereo not given): 6.31 µM [falling, single point]. Consider `CC(=O)/C=C/n1c(=S)oc2ccccc21`, for which the concentration at half-maximal activity (AC50) by setting is: under setting [1], 20.6 µM [falling, partial curve]; under setting [2], 5.17 µM [falling, single point]. For `CCNc1oc(-c2ccccc2F)nc1S(=O)(=O)c1ccccc1`, the AC50 under setting [1] is 14.1 µM [falling, single point]. Turning to `Cc1cc(SCc2ccccc2C)nc(=O)[nH]1`, the concentration at half-maximal activity (AC50) under setting [1] is 3.55 µM [falling, full curve]. For `O=C(CNC(=O)c1cccs1)NCCc1ccco1`, the half-maximal activity concentration (AC50) under setting [1] was 23.1 µM [rising, partial curve, poor fit]. On the same count and under the same terms, to `COc1cccc(-n2c(SC)nnc2-c2c[nH]c3ccccc23)c1` belongs 17.8 µM [falling, single point]; to `Cc1nn(Cc2c(Cl)cccc2Cl)c(Cl)c1/C=C/C(=O)OCC(=O)NCC(F)(F)F`, 0.092 µM [rising, full curve, poor fit]; to `COc1ccc(NC(=O)CSc2ccccn2)c([N+](=O)[O-])c1`, 17.8 µM [rising, single point]. Same read-out and setting: the same measure for `COc1cccc(/C=C2\SC(=O)N(CCC(=O)N3CCC(C(=O)O)CC3)C2=O)c1`: 2.82 µM [falling, full curve]. With `Cc1cc(S(=O)(=O)NCC(=O)O)ccc1F`, the AC50 is 2.31 µM [falling, single point] under setting [1] and 4.11 µM [rising, partial curve, poor fit] under setting [2]. Take `c1ccc(C2C/C(=N\N3CCOCC3)c3ccccc3O2)cc1` (stereo not given): the AC50 under setting [1] was 0.231 µM [rising, full curve, poor fit].

As for `CC(/C=C1\SC(=S)N(NC(=O)c2cccc(O)c2)C1=O)=C\c1ccccc1`, the AC50 is 20.6 µM [falling, single point] under setting [1] and 32.6 µM [falling, partial curve, poor fit] under setting [2]. With `COC(=O)c1ccc(/C=C2/SC(=S)N(CCCC(=O)Nc3ccccn3)C2=O)cc1`, the AC50 under setting [1] is 13 µM [falling, partial curve]. On the same count and under the same terms, to `Cc1sc2nc(C3CC3)nc(N3CCN(C(=O)c4ccc(F)cc4)CC3)c2c1C` belongs 35.5 µM [falling, single point]; to `Cc1ccccc1NC(=S)NNC(=O)c1cccc(Br)c1`, 4.47 µM [falling, partial curve, poor fit].

Turning to `COc1cccc2cc(C(=O)OCC(=O)NC3CCCC(C)C3C)c(=O)oc12` (stereo not given), the half-maximal activity concentration (AC50) under setting [1] is 6.51 µM [falling, partial curve, poor fit]. Still for that read-out and setting: the same measure for `CCC(=O)N(CC)c1nc(-c2ccc(OC)cc2)cs1`: 10 µM [rising, partial curve]. With `O=Cc1ccc(Sc2nnc(-c3ccccc3)o2)c([N+](=O)[O-])c1`, the AC50 was 29.1 µM [rising, single point] under setting [1] and 29.1 µM [falling, single point] under setting [2]. In the case of `O=C(Nc1cccc(NC(=O)c2ccc(-c3cccc(Br)c3)o2)c1)c1ccco1`, the AC50 under setting [1] was 0.891 µM [falling, full curve].

Turning to `O=C(CCS(=O)(=O)c1ccc(F)cc1)Nc1nnc(-c2ccco2)o1`, the concentration at half-maximal activity (AC50) under setting [1] is 29.1 µM [falling, single point].

Regarding `O=C(CC(c1ccccc1)c1ccccc1)NCC(O)c1ccc([N+](=O)[O-])cc1` (stereo not given), the AC50 under setting [1] is 7.94 µM [falling, partial curve, poor fit]. The same measure, in the same setting: to `COc1cc(NC(=O)CN2C(=O)C(c3ccccc3)=NC23CCCCCC3)cc(OC)c1` belongs 5.17 µM [falling, single point].

With `COc1ccc(C(=O)N/N=C/c2ccccc2OC(=O)c2ccccc2)cc1`, the AC50 runs as follows: under setting [1], 35.5 µM [falling, single point]; under setting [2], 3.16 µM [falling, partial curve, poor fit]. In the case of `CCOc1cc(N2CCOCC2)c(OCC)cc1NC(=O)Cc1cccc(OC)c1`, under setting [1], the AC50 was 8.91 µM [rising, partial curve, poor fit]. Still for that read-out and setting: to `Cc1ccc(N/N=C2\CC(=O)c3ccccc32)cc1Cl` belongs 3.55 µM [rising, full curve]. The same measure, in the same setting: to `CN(Cc1cn(C)nc1-c1ccc(Oc2ccccc2)cc1)C1CCOC1` (stereo not given) belongs 8.91 µM [rising, partial curve, poor fit]. Turning to `N=C1S/C(=C\c2ccc(-c3cccc(Cl)c3)o2)C(=O)N1c1nccs1`, the AC50 by setting is: under setting [1], 25.9 µM [rising, single point]; under setting [2], 2.31 µM [falling, partial curve, poor fit]. As to `CCOc1ccc(OCC)c(NC(=O)Cn2cccc2)c1`, the AC50 under setting [1] is 29.1 µM [rising, single point]. `O=C(Nc1cccc(NC(=O)c2cccnc2)c1)c1ccccc1`: the AC50 under setting [1] was 8.91 µM [falling, partial curve].

Take `CN(CCCC(=O)Nc1ccccc1F)S(=O)(=O)c1ccc(F)cc1`: the AC50 under setting [1] is 11.2 µM [falling, partial curve]. The same measure, in the same setting: the same measure for `CN(/N=C/c1cc(Cl)cc(Cl)c1O)C(=S)NC(C)(C)C`: 25.1 µM [falling, partial curve, poor fit]. For `COc1nc(NCc2cccnc2)nc(NC2CCCCC2)n1`, the AC50 under setting [1] was 29.1 µM [falling, single point]. The same measure, in the same setting: to `COc1ccc(Cl)cc1NC(=O)C1Cc2ccccc2CN1S(C)(=O)=O` (stereo not given) belongs 5.01 µM [rising, single point]; to `NC(=O)C(F)(F)C12OC3C4C5CC(C6C5C3C61)C42` (stereo not given), 0.651 µM [falling, full curve, poor fit]; to `CCC(CO)NS(=O)(=O)c1cc(-c2nn(C)c(=O)c3ccccc23)ccc1C` (stereo not given), 0.891 µM [rising, partial curve, poor fit].

On to `CCc1ccc2nc(NC(=O)C3CSC4(C)CCC(=O)N34)sc2c1` (stereo not given), for which the AC50 under setting [1] is 32.6 µM [falling, partial curve, poor fit].

`COC(=O)C1=C(C)NC(C)=C(C(=O)OC)C1c1ccccc1[N+](=O)[O-]`: the AC50 runs as follows: under setting [1], 6.31 µM [falling, full curve]; under setting [2], 29.1 µM [rising, single point]. For the compound `COc1ccc(/C=N/NC(=O)COc2ccccc2-c2ccccc2)cc1`, the concentration at half-maximal activity (AC50) under setting [1] is 4.11 µM [rising, full curve] and the AC50 under setting [2] was 5.8 µM [falling, partial curve].

In the case of `COc1cc(-c2n[nH]c(=S)n2-c2ccc(C)cc2)cc(OC)c1OC`, the AC50 under setting [1] was 35.5 µM [falling, single point] and the half-maximal activity concentration (AC50) under setting [2] is 35.5 µM [rising, partial curve, poor fit]. Regarding `COc1ccc(CCN(C)C(=O)c2cc(S(=O)(=O)NCc3ccccc3)ccc2C)cc1OC`, under setting [1], the AC50 is 1.3 µM [rising, partial curve]. On the same count and under the same terms, to `COc1ccc(NC(=O)/C(=C\c2cccs2)NC(=O)c2ccco2)cc1` belongs 0.447 µM [falling, partial curve, poor fit]; to `CC(C)C(C)(C#N)NC(=O)CSc1nc2scc(-c3ccco3)c2c(=O)n1-c1ccccc1` (stereo not given), 3.55 µM [falling, partial curve, poor fit]; to `COc1cccc(C2CNC3(CCCC(C)C3)c3[nH]c4ccccc4c32)c1OC` (stereo not given), 10 µM [falling, partial curve].

Take `COC(=O)c1ccc(Cl)c(-c2ccc(/C=N/NC(=O)Nc3ccccc3)o2)c1`: under setting [1], the concentration at half-maximal activity (AC50) was 11.6 µM [rising, partial curve, poor fit].
